Reference: PubChem BioAssay AID2685 (National Center for Advancing Translational Sciences (NCATS), 2010)
In all, about 320,000 compounds went through this assay and about 2,100 (0.66%) were called active. Inconclusive results, whose numbers are uncertain, are shown with a selection of clear calls. Calls come from the whole dose curve; as a rule, active = well fitted inhibition curve with a large enough effect in the signal ratio, with a control signal flat (not every such curve was filed as active); inconclusive = small, poorly fitted or top-dose-only effect, or effect the other way, or a change in a side signal; inactive = flat fitted curve, though single readings scatter; the % refers to the signal ratio. Potencies beside an inconclusive call are fits to weak or partial responses and may not hold up.

Assay: qHTS Assay for Lipid Storage Modulators in Drosophila S3 Cells
Conditions: BODIPY lipid droplet fluorescence, 18-24 h, cells fed with added oleic acid; lipid storage change, negative = inhibition: at 46.1 µM (top of the series) unless noted
Summary of the method: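 Laser-scanning cytometry quantifies lipid droplet accumulation (500–530 nm total intensity; droplet/cell object ratio) in oleic acid-fed (400 uM added) Drosophila S3 cells treated with a concentration series. 20 uM Triacsin C defined 100% inhibition.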
% is set by controls: 0 for no effect and ±100 for the full control effect; potency is the fitted concentration of half-maximal effect.

| Compound | lipid storage change, negative = inhibition | Potency | outcome |
| --- | --- | --- | --- |
| CC1CCCCC1NC(=O)CO/N=C/c1ccc(OC(F)F)cc1 (stereo not drawn) | inconclusive: 13.7% | – | – |
| COc1cc(CN2CCCC(C(=O)c3ccc(SC)cc3)C2)cc(Cl)c1O (stereo not drawn) | inconclusive: 21.7% | – | – |
| CCOC(=O)c1c(NC(=O)COc2cccc3c2CCN(CC)C3=O)sc2c1CCC2 | inconclusive: 49.4% | – | – |
| COc1ccc2c(c1)O[C@H](c1ccc3c(c1)OCO3)[C@@H](OC(=O)N[C@H](C)C1CCCCC1)C2=O | – | inconclusive: 11.6 µM [activator, single point] | – |
| Clc1ccc(-n2nnnc2-c2cnc3ccc(Cl)cc3c2-c2ccccc2)cc1 | inconclusive: 11.8% | – | – |
| COc1cc(/C=c2\sc3nc(-c4ccncc4)nn3c2=O)ccc1OC(C)=O | inconclusive: 16.9% | – | – |
| CCCCCCC(=O)Nc1c2c(nc3ccccc13)N(C)CC2 | inconclusive: 10.8% | – | – |
| COC(=O)[C@@]12CCCN1[C@H](c1ccc(-c3ccc(OC)cc3)c(OC)c1)[C@H]1C(=O)N(C)C(=O)[C@H]12 | inconclusive: 0.141% | – | – |
| CCOc1ccccc1OCCCCCc1c(C)n[nH]c1C | – | inconclusive: 23.1 µM [falling, single point] | – |
| Cc1ccc(NC(=O)CN2C(=O)CSC2=O)cc1 | inactive: 3.2% | – | – |
| O=C(CS(=O)(=O)c1ccccc1)N1CCCCC1 | – | – | inactive [at 46.1 µM] |
| O=C(O)C1CSC(c2ccc(O)c([N+](=O)[O-])c2)N1 (stereo not drawn) | inconclusive: -14.9% | – | – |
| COc1cc(CNc2ccc(C)c(C)c2)cc(OC)c1OC | – | inconclusive: 29.1 µM [falling, single point] | – |
| CCc1cc2c(cc3c(=O)n(CC(=O)NCCCN4CCCCCC4)nc(CC)n32)s1 | – | inconclusive: 29.1 µM [activator, single point] | – |
| O=C(CSC(=S)N1CCCC1)NCC(=O)Nc1ccc(F)c(F)c1 | inconclusive: 13.1% | – | – |
| COc1ccc(OCC(=O)N/N=C/C(C)=C/c2ccco2)c(Br)c1 | inconclusive: 268% | – | – |
| CCCOC(=O)c1ccc(Nc2cc(C)nc3ncnn23)cc1 | inconclusive: 5.64% | – | – |
| COc1cccc(/C=C2\Oc3cc(OCC(=O)N4CCCC4)ccc3C2=O)c1OC | inconclusive: -73.7% | – | – |
| CCCCCCCOc1ccc(-c2ccc(C#N)cn2)cc1 | inconclusive: 6.08% | – | – |
| Cc1ccc(C(=O)COC(=O)CN2C(=O)C3C4C=CC(C4)C3C2=O)cc1[N+](=O)[O-] (stereo not drawn) | – | inconclusive: 8.2 µM [activator, partial curve] | – |
| COc1cccc(C(=O)Nc2cc3c(cc2Cl)OCCCO3)c1 | inconclusive: 30.3% | – | – |
| Cc1noc(C)c1S(=O)(=O)Nc1ccc(O)c2c(=O)cc(-c3ccccc3Cl)oc12 | inconclusive: -4.69% | – | – |
| CC(=O)NCCC(=O)Nc1nc(C)c(Cc2ccc3c(c2)OCO3)s1 | inconclusive: 24.8% | – | – |
| O=c1cc(O)c2ccccc2n1Cc1ccccc1Cl | inconclusive: 25.6% | – | – |
| O=S(=O)(NCCOc1ccccc1)c1ccc2ccccc2c1 | – | inconclusive: 0.731 µM [falling, single point] | – |
| Cc1ccc(N=Cc2c(O)n(-c3ccc4c(c3)OCO4)c(=O)c3ccccc23)cc1 | – | inconclusive: 23.1 µM [activator, single point] | – |

| Compound | lipid storage change, negative = inhibition | Potency | outcome |
| --- | --- | --- | --- |
| O=C(NC(=S)Nc1ccc(S(=O)(=O)N2CCCCC2)cc1)c1cccs1 | – | inconclusive: 25.9 µM [activator, single point] | – |
| COc1ccc(S(=O)(=O)N2CCN(C(=O)C3CC3)CC2)cc1Br | inconclusive: 14.7% | – | – |
| COc1ccc(CCn2c(O)c(C=Nc3cccc(F)c3)c(=O)[nH]c2=O)cc1OC | inconclusive: 14.2% | – | – |
| O=C(CN1CCCC1c1cccs1)Nc1cccc(S(=O)(=O)N2CCCC2)c1 (stereo not drawn) | – | inconclusive: 5.17 µM [falling, partial curve, poor fit] | – |
| CC(=O)c1cccc(NC(=O)CN(C)Cc2ccc(OC(F)F)cc2)c1 | inconclusive: -17.7% | – | – |
| O=C(Cc1cccs1)NC1(C(=O)NC2CCCC2)CCCCC1 | inconclusive: -25.2% | – | – |
| CC1(C)Cc2c(c(=S)nc(-c3ccccc3)n2CCO)CO1 | – | active: 0.259 µM | – |
| CC(=O)Nc1cccc(NC(=O)COc2ccc3c(c2)CCC3)c1 | – | inconclusive: 4.11 µM [falling, full curve] | – |
| O=C(CN1CCN(CC(=O)Nc2ccc(F)cc2)CC1)NCC1(N2CCOCC2)CCCCC1 | – | inconclusive: 0.461 µM [activator, single point] | – |
| Cc1nn2c(=O)cc(COC(=O)c3ccc(S(=O)(=O)N4CCCCC4)cc3)nc2s1 | inconclusive: 13.9% | – | – |
| CC(=O)Nc1ccc(NC(=O)CCCNC(=O)c2ccc(Cl)cc2)cc1 | inconclusive: 39.4% | – | – |
| Cc1cc2cc(CNC(=O)CCC(=O)O)ccc2n1C | inconclusive: 8.95% | – | – |
| Cc1cc(C)n(CC(O)COc2ccccc2Br)n1 (stereo not drawn) | – | inconclusive: 18.4 µM [activator, single point] | – |
| Cc1ccc(N(CC(=O)NCc2ccc(F)cc2)C(=O)CCC(=O)Nc2ccccn2)cc1C | – | inconclusive: 10.3 µM [activator, partial curve] | – |
| O=C(CCl)N=c1sccn1Cc1cccc2ccccc12 | inconclusive: -9.79% [at 9.22 µM] | – | – |
| CN(c1cccc(NC(=O)c2ccc(Cl)c(S(=O)(=O)N3CCOCC3)c2)c1)S(C)(=O)=O | inconclusive: -62% | – | – |
| CN1C(C(=O)NCCc2cccs2)CC2Cn3c(nc4ccccc43)C21 (stereo not drawn) | inconclusive: 8.49% | – | – |
| COc1cccc(C2=CC(c3ccccc3)n3ncnc3N2)c1 (stereo not drawn) | – | inconclusive: 29.1 µM [falling, single point] | – |
| COc1ccc(N2C(=O)NC3CC2(C)Oc2ccccc23)cc1OC (stereo not drawn) | inconclusive: 19.8% | – | – |
| CCCCNC(=O)C12CCC(C)(C(=O)C1Br)C2(C)C (stereo not drawn) | inconclusive: -8.11% | – | – |
| NCc1oc(-c2ccccc2)cc1C(=O)O | inconclusive: 0.306% | – | – |
| CC1CCCCC1NC(=O)/C=C/c1nc2ccccc2s1 (stereo not drawn) | inconclusive: 9.56% | – | – |
| COc1ccccc1CNC(=O)CSC(=S)N1CCCC1 | inconclusive: -0.734% | – | – |
| O=C(c1ccco1)N(CCC(c1ccccc1)c1ccco1)Cc1ccccc1 (stereo not drawn) | inconclusive: 11.8% | – | – |
| COc1ccc(CCNC(=O)c2cc(-c3ccc(C)cc3O)n[nH]2)cc1OC | – | inconclusive: 0.291 µM [activator, full curve, poor fit] | – |
| COc1ccccc1-n1c(-c2ccccc2)n[nH]c1=S | – | inconclusive: 3.66 µM [falling, partial curve, poor fit] | – |

Shown field by field: entries from further up
CC(=O)c1cccc(NC(=O)CN(C)Cc2ccc(OC(F)F)cc2)c1
  lipid storage change, negative = inhibition: inconclusive: -17.7%
O=C(Cc1cccs1)NC1(C(=O)NC2CCCC2)CCCCC1
  lipid storage change, negative = inhibition: inconclusive: -25.2%
CC1(C)Cc2c(c(=S)nc(-c3ccccc3)n2CCO)CO1
  Potency: active: 0.259 µM
CC(=O)Nc1cccc(NC(=O)COc2ccc3c(c2)CCC3)c1
  Potency: inconclusive: 4.11 µM [falling, full curve]

(list continues)

| Compound | lipid storage change, negative = inhibition | Potency | outcome |
| --- | --- | --- | --- |
| CCn1ncc(CN2CCC(C(=O)Nc3cccc(-c4cccc(F)c4)c3)CC2)c1C | – | inconclusive: 3.26 µM [activator, single point] | – |
| COc1ccc(NS(=O)(=O)c2cccc(C(=O)OCC(=O)NC3CC3)c2)cc1 | inconclusive: 70.6% | – | – |
| CCCN1CCC(NC(=O)C2CCCCC2C(=O)O)CC1 (stereo not drawn) | – | inconclusive: 13 µM [activator, partial curve] | – |
| CC(C)CC1(C)N=C(c2ccccc2)C(=S)N1 (stereo not drawn) | inconclusive: 34.5% | – | – |
| CCOC(=O)C1CCCN(C(=O)c2ccc(OC(C)=O)cc2)C1 (stereo not drawn) | – | inconclusive: 0.116 µM [activator, full curve, poor fit] | – |
| O=c1c(F)cn(C2CCCO2)c(=O)n1Cc1ccccc1Cl (stereo not drawn) | inconclusive: 39.1% | – | – |
| O=C(c1ccncc1)N1CCN(S(=O)(=O)c2ccc(F)cc2)CC1 | – | inconclusive: 16.4 µM [activator, single point] | – |
| COc1ccc(Cl)cc1NC(=O)CN(C)C1CCCCC1 | inactive: 10.9% | – | – |
| CCN(Cc1ccccc1)C(=O)C1CCN(Cc2sccc2C)CC1 | inconclusive: 5.79% | – | – |
| CCCCCc1n[nH]c2c1CCCC2 | inconclusive: -35.5% | – | – |
| COc1ccc(NC(=O)CC2C(=O)N(c3cccc(OC)c3)C(=O)N2C(C)C)cc1 (stereo not drawn) | inconclusive: 2.37% | – | – |
| COC(=O)/C=C/CC(C)OS(N)(=O)=O (stereo not drawn) | inconclusive: 83% | – | – |
| Cc1ccc(NC(=O)c2cc(-c3ccc4c(c3)OCO4)on2)cc1C | – | inconclusive: 1.16 µM [activator, single point] | – |
| COc1cc(OC)c(C2=NOC(C(=O)Nc3ccc4c(c3)OCO4)C2)cc1Cl (stereo not drawn) | – | inconclusive: 0.731 µM [activator, full curve, poor fit] | – |
| O=C(NC1CCCCC1)C(=S)N1CCCC1 | inconclusive: 26.5% | – | – |
| O=C(CC(C(=O)O)c1ccccc1)Nc1ccccc1 (stereo not drawn) | inconclusive: -32.4% | – | – |
| CCOC(=O)c1sc(NC(=O)CN2CCN(c3ccccc3)CC2)nc1C | – | inconclusive: 20.6 µM [activator, single point] | – |
| COc1ccc(/C=C2\SC(=O)N(CC(=O)NNC(=O)c3ccccc3O)C2=O)cc1 | inconclusive: -69.9% | – | – |
| CSc1nccc(N/N=C/c2ccccc2)n1 | inconclusive: 37.9% | – | – |
| COc1ccccc1N1CCN(C(=O)c2cc3cc(Br)ccc3oc2=O)CC1 | – | inconclusive: 0.291 µM [activator, single point] | – |
| CCOC(=O)CSc1snnc1-c1ccccc1 | inconclusive: 0.72% | – | – |
| COc1ccc(CC(=O)NC(C)c2nnc(SCC(=O)Nc3nc(C)cs3)n2C)cc1 (stereo not drawn) | – | inconclusive: 6.51 µM [activator, single point] | – |
| O=C(COC(=O)c1ccc(O)cc1O)Nc1ccc(Cl)cn1 | – | inconclusive: 4.61 µM [activator, single point] | – |
| O=C(Oc1cccc(N2C(=O)CCC2=O)c1)C1CC(=O)N(c2ccc(F)cc2)C1 (stereo not drawn) | inconclusive: -31.5% | – | – |
| O=C(CSc1ccc2ccccc2c1)NCCCN1CCCC1=O | inconclusive: -29.7% | – | – |
| CC(=O)Nc1ccc(NC(=O)C2CCCN2C(=O)NC2CCCCC2)cc1 (stereo not drawn) | inconclusive: 19.4% | – | – |
